These results are taken from PubChem BioAssay AID1347426 (Functional Genomics Laboratory (NCATS/FGL), 2020).

Among all 31,000 sequences or so, about 1,400 (4.5%) were called active.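 Rule for the calls: active = median seed-adjusted z-score above 1 or below -1; inactive = the rest.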 Some of the results follow.

This test is described as follows: Novel Modifiers of Survival Motor Neuron (SMN) Protein: Gene Identification via Genome-wide siRNA Screen.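 Note: luminescence tracks full-length SMN protein made from the SMN2 reporter.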 As to conditions: HEK293T SMN2-luciferase reporter, siRNA knockdown, 72 h; actives lie on both sides. In a few lines:
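HEK293T cells stably carrying an SMN2 promoter/splicing cassette–luciferase reporter were reverse-transfected with 1 pmol siRNA per well (druggable-genome library, 3 siRNAs per gene) and grown 72 h at 37 °C. Luminescence, normalized to negative-control siRNA and log10-transformed, was scored as MAD.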
(In general: Reporter assays use an easily measured gene product as a stand-in for the process of interest.)
Take CACAGGUAAUCAUACCCUATT against NDUFA9: the median seed-adjusted z-score was inactive: -0.325. As to UGCUGAAUGGAGAACUGAATT against EARS2, the median seed-adjusted z-score is inactive: 0.0463. Regarding CCAUAACCGAUGUGCUGGATT against METTL1, the median seed-adjusted z-score was inactive: 0.0494. Turning to GGUGCACCAUUAAUAACCATT against ELF2, the median seed-adjusted z-score is inactive: -0.514.

On to UGAUGGAAGUUGUCACUUATT against BLK, for which the median seed-adjusted z-score is inactive: -0.274.

As to CAGUGAAUAUGGAACCGGATT against CHD3, the median seed-adjusted z-score was inactive: 0.589. Next, CAACCUCUCUCAUCGGGAATT against ETV6: inactive: 0.0216; CAAUUAACCUGCAGUUUAATT against AP3M2: inactive: 0.327. With GCCUGACAGUGGUAUACAATT against COPZ1, the median seed-adjusted z-score was active: -1.02. Then CAUCCGCUUUUGUAAGGAUTT against ITPKB, with inactive: -0.142; and GGAUGAUGUGAACUACAAATT against PTDSS1, with inactive: -0.76. Next, GGACAGUUAAGUUUGGGAATT against MOS: inactive: 0.105. Next, GCUUUCAGCCUGAUGGAUATT against ITPA: inactive: 0.616; GGCCGAAUCCCUUCAGAAATT against NSUN3: inactive: 0.302; UGAACUGAUCUGUAUCAAATT against CCRL1: inactive: -0.347. For the sequence CCCUGGUCCGCUACAAGAATT against PROKR1, the median seed-adjusted z-score is inactive: -0.507. Then CGAGACCUACUCCUACUAUTT against DEGS2, with inactive: -0.305; and GGAAGUCUCUGACACCGAUTT against PGBD1, with inactive: 0.925. Then CGCAGUCAAUGGUCUAGAATT against NT5C1B, with inactive: 0.0594; and GGGACAAAAAUACACUUAATT against ZNF277, with inactive: -0.0374; and GGGAUGACAUUUUCGUGUATT against USP4, with inactive: -0.0365. As to CAGUUUCGGUGCAUAGAAATT against NADSYN1, the median seed-adjusted z-score is inactive: 0.217. Consider GAAGUAGAAAGAUAUACGATT against PCDHGB7, for which the median seed-adjusted z-score was inactive: -0.0065.

Regarding GGGUGGUGGUUGUAGAUAUTT against PCDHB12, the median seed-adjusted z-score is inactive: -0.0664. Then CGGCAUCAAUGUGAAAUGUTT against GMEB2, with inactive: -0.669; and GACGCAGUAUGAUGAGAUUTT against SPPL2B, with inactive: 0.0324; and CUGGGACUGUGAUAACGGATT against ASPHD2, with inactive: -0.719. Turning to CGGUUGCAACUGGAAUGUUTT against SLCO1B3, the median seed-adjusted z-score is inactive: -0.303. For GGCCAUUUGCAAUAGACAUTT against B3GAT1, the median seed-adjusted z-score was inactive: 0.503. For GACUUGUCUUCUUCGUAAATT against DNM1L, the median seed-adjusted z-score is inactive: -0.153. Take GGACUCUUCAUGAUCUAUUTT against SLC33A1: the median seed-adjusted z-score was inactive: 0.2.

In the case of AGCACAGGCUCUUACCUUATT against ZNF177, the median seed-adjusted z-score was inactive: 0.363. Then CUAUCUCCCUCAUUAGAUATT against GJA9, with inactive: -0.00119; and GGACAAUCAUUACCAGAUATT against ZBTB1, with inactive: 0.3; and AAUCAAAAGGGAGAACUCATT against HS3ST2, with inactive: 0.133. Next, CAAUAAGGCUCAUGCACAATT against GNAQ: active: -1.23. Next, GCCCUCCAAUAUGCUAGUATT against MAP2K5: inactive: 0.986; CAACGACUCAAAGUAUAUATT against SETD1A: inactive: 0.0595; AGAUCUACAUCGUGAUGAATT against CDC2L1: active: -1.14. Consider GAAAUACGAGAAACGAAUUTT against OXCT2, for which the median seed-adjusted z-score was inactive: -0.449.

As for GAACUUCAGAAGUAUGAGATT against USP29, the median seed-adjusted z-score is inactive: 0.00928. Next, CCAUCGUCCUCAUGUCAAATT against SPIC: inactive: 0.379. On to CGAUAAACUCAGACCAGAATT against IDE, for which the median seed-adjusted z-score is inactive: -0.081. As to GCAUUAGAGGUGACGCAAATT against FBXO18, the median seed-adjusted z-score is inactive: -0.417.

For GAAGGUCCCAAACAACAUUTT against TACR3, the median seed-adjusted z-score is inactive: 0.0904. Then GCUGGUACCAGAUGCUGUATT against CLN3, with inactive: 0.105; and CCCUAGAUAUGGACGAUGATT against UTP3, with active: -1.08; and GUUUCGACCUCGAUCCAGATT against ZNF358, with inactive: 0.359. In the case of GAGUUGUCGACACCACUUATT against PROS1, the median seed-adjusted z-score was inactive: 0.436. Then GAUGUUCACGUAAACAUAATT against ZRSR2, with inactive: 0.0222; and GGAAUGAAGGUUGUCCUUATT against HSD17B12, with inactive: 0.0719; and CCGUAUUCUCAAUCAAGUATT against RAPGEF2, with inactive: -0.0715.

Take CCAGCUCGAGAAUUUGGAATT against MXI1: the median seed-adjusted z-score is inactive: 0.348. Take GCUCUUACCUUACCAUCGATT against DNMT3B: the median seed-adjusted z-score was inactive: 0.0761. Next, GCUCUUAGGUUUUUAUCAATT against PTGER2: inactive: 0; GCACGAUAUUAUGAUCCAATT against PPAT: active: -1.51; GCUCUAGGCUUCAAGGCAATT against CTSL3: active: 1.07.

Regarding GGUACCAACAAAUACGAUATT against INPP5J, the median seed-adjusted z-score was inactive: 0.223. Next, GGAUCAUGACCUAUGCUAATT against AKAP3: inactive: 0.0138; AUCCGUAACUGCUACCAGATT against COX6B2: inactive: -0.544.

On to GGGCAGGUGUGAUACCUAUTT against RUVBL1, for which the median seed-adjusted z-score is inactive: -0.834.

Consider GGUCCUCAGUAUAAAAUCATT against NOTCH2NL, for which the median seed-adjusted z-score was inactive: 0.586. Then GGAAGCACAUCUACCUACATT against AMZ1, with inactive: 0.205; and CCCUGACGGUCAUCGAGAATT against 9-Mar, with inactive: 0.261; and GGUGUGCACUGUGAGAUCATT against NOTCH1, with inactive: 0.116. Next, CAGGCACAGUUGCCGAUUATT against CD247: inactive: -0.522; CGCAAUUAAUUAGUAGUGATT against RBAK: inactive: 0; CACCCGCAAGUGGACUUUATT against ACTL7B: inactive: 0.572.
